No constants are given. Whether binding was seen depends on the method and setting. Binding seen in cells or lysates may run through a third protein. Some results given as binding are weak or reduced against the parent protein; the word gives no strength. Where a sequence is shown, tags or fusion partners need not be part of it.
Molecular target: apoptosis signal-regulating kinase 1 (ASK1), Flag-tagged (UniProt O35099)
Test: co-IP; exogenous co-IP in mouse AML-12 hepatocytes transfected with HA-GSTM1 and Flag-ASK1; cells lysed in co-IP buffer on ice 30 min, supernatant incubated with Flag Magnetic Beads overnight at 4 °C, washed three times, western blotting

Chains of the proteins cited; added tags and fusions are not shown.
UniProt O35099: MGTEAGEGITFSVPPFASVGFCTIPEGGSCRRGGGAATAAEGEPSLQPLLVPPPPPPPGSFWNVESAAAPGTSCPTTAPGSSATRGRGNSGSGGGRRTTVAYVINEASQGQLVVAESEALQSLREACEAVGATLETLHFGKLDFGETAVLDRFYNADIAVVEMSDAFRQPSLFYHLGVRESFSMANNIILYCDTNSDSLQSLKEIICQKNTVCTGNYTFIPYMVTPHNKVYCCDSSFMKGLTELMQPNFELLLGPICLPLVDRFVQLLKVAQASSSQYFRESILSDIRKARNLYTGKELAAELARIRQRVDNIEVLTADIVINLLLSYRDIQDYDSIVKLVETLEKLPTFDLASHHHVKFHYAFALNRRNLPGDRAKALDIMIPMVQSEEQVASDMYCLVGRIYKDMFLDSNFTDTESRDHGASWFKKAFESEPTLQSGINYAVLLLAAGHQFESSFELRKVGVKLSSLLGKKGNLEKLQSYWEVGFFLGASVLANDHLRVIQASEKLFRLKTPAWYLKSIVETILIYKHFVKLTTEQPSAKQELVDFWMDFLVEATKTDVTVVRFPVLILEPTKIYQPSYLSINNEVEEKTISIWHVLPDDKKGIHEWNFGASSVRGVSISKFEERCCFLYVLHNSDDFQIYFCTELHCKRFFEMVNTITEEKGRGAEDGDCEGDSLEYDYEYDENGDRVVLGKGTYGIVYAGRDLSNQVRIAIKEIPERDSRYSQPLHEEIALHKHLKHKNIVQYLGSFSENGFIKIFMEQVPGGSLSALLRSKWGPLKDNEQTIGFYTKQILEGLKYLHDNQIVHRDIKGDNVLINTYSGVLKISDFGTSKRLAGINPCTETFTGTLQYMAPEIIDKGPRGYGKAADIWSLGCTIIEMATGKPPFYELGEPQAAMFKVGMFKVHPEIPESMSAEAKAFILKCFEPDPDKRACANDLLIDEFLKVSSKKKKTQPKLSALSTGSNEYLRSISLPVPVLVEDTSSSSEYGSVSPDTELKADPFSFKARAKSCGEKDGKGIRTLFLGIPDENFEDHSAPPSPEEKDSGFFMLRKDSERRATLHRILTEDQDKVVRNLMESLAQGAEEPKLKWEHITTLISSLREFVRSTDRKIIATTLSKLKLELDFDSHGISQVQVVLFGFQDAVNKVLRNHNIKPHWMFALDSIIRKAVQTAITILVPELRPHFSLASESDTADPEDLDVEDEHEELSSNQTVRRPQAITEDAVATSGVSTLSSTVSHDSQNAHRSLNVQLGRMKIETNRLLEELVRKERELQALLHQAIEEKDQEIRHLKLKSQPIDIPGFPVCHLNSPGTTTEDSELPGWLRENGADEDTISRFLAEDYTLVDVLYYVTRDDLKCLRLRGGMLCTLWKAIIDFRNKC

binding: binds
B1: glutathione S-transferase mu 1 (GSTM1), HA-tagged (enzyme, UniProt P10649 1-218)
chain: MPMILGYWNVRGLTHPIRMLLEYTDSSYDEKRYTMGDAPDFDRSQWLNEKFKLGLDFPNLPYLIDGSHKITQSNAILRYLARKHHLDGETEEERIRADIVENQVMDTRMQLIMLCYNPDFEKQKPEFLKTIPEKMKLYSEFLGKRPWFAGDKVTYVDFLAYDILDQYRMFEPKCLDAFPNLRDFLARFEGLKKISAYMKSSRYIATPIFSKMAHWSNK

Source: paper PMC10936097
